From publication PMC8662847
These are yes or no findings as the source states them, for the method shown. Binding seen in cells or lysates may run through a third protein. Some entries that bind do so weakly or less than the wild type.

Protein sequences, listed by entry. Tags and fused reporters are not part of them.
UniProt Q96H22: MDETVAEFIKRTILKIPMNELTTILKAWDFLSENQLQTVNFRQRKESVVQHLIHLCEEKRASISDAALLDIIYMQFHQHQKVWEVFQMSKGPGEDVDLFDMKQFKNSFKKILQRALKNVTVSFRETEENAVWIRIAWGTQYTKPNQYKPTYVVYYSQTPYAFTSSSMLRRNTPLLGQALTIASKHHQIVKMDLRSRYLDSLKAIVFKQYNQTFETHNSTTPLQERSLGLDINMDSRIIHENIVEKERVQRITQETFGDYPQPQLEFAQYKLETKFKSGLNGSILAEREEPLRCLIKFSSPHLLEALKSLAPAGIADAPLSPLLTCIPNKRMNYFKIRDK
UniProt P31749: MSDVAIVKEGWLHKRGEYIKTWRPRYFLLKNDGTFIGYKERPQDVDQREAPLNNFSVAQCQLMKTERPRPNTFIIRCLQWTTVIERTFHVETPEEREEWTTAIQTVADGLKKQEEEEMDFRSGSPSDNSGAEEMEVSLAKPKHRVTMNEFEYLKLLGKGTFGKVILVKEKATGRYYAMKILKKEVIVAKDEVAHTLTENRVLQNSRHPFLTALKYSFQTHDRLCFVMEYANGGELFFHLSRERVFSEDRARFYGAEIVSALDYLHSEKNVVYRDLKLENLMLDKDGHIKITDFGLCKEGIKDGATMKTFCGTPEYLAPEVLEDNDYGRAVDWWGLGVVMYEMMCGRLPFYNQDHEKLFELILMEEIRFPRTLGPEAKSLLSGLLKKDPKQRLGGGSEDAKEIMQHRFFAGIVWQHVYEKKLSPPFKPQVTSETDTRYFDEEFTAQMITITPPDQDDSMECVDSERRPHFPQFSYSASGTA

Biological target: GST-CENP-N fusion protein (human) (UniProt Q96H22)
Experiment: pull-down; 500 ug of GST or GST-CENP-N mixed 3 h with glutathione-agarose resin, then 500 ug of His-AKT1 protein overnight; SDS-PAGE, blots with anti-GST and anti-His

binding: binds
Substance: His-AKT1 fusion protein (from UniProt P31749 1-480)
